Experimental data reported in the supplement of paper PMC12889115.
The other results are listed elsewhere or left out. Values are raw readings; no control value is given beside them.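 Primary screen: polymyxin B was added at a level permeabilizing Salmonella outer membranes while sparing inner membranes. DMSO wells, both with and without polymyxin B, established maximum growth. Plate-to-plate variation meant each plate was ranked on its own, and the lowest-OD600 compounds were selected as hits.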

System: Salmonella enterica serovar Typhimurium SL1344
Assay: bacterial growth OD600 after 18 h with compound and polymyxin B; higher = more bacterial growth (less inhibition)
Details: 50 µM, Mueller-Hinton broth

Row | SMILES | bacterial growth OD600 (polymyxin B 1 µg/mL) | bacterial growth OD600 (polymyxin B 0.75 µg/mL)
1 | Cc1ccc(CN(C)C(=O)c2ccccc2OC2CCN(Cc3ccccn3)CC2)o1 | 0.977 | 
2 | CC(=O)N[C@@H]1c2ccccc2C2(CCN(Cc3nc4ccccc4n3C)CC2)[C@H]1OCc1ccccc1 |  | 0.773
3 | COCC(=O)Nc1cc(C(=O)NC2Cc3ccccc3C2)cc2ncn(CCc3ccccc3)c12 |  | 0.814
4 | CCOC(=O)C1(Cc2ccccc2F)CCCN(Cc2cn(CC(N)=O)c3ccccc23)C1 (stereo not given) | 1.28 | 
5 | CN(CC(O)c1ccccc1)C(=O)CC1(c2ccccc2Cl)CC(=O)N(C2CCCC2)C1=O (stereo not given) |  | 0.005
6 | O=C(NCc1cccnc1)C1CCN(C2CCN(CCCC(F)(F)F)CC2)CC1 | 0.888 | 
7 | OCCC1CN(Cc2cccc3nonc23)CCN1Cc1ccccc1F (stereo not given) | 0.769 | 
8 | O=C(Cc1ccc(N2CCC(NCCOc3cccnc3)CC2)cc1)NCCc1cccc(F)c1 |  | 0.791
9 | Cc1nc(-c2ccncc2)ncc1C(C)NCc1cccn1-c1ncccn1 (stereo not given) |  | 0.788
10 | COC(=O)CCC(=O)N1CCCC(CCC(=O)Nc2cc(Cl)ccc2OC)C1 (stereo not given) | 0.883 | 
11 | O=C(CC1=CCCCC1)N1CCC(C2(c3cccnc3)NC(=O)N(CCc3cccs3)C2=O)CC1 (stereo not given) |  | 0.833
12 | CC(C)NC1CC(=O)N(CCc2ccc(F)cc2)C1 (stereo not given) | 0.864 | 
13 | CN(Cc1nccn1C)C(=O)c1csc2nc(-c3cccc(F)c3)cn12 | 0.042 | 
14 | CCOC(=O)C1(CC2CC2)CCN(S(=O)(=O)c2cc(Cl)ccc2OC)CC1 | 0.609 | 
15 | CC(CN1CCC(N2CCC(C(=O)NCc3cccnc3)CC2)CC1)c1ccccc1 (stereo not given) | 0.768 | 
16 | COc1ccc(-n2cc(CNCC3COCCO3)c(-c3ccccc3Cl)n2)cc1 (stereo not given) | 0.883 | 
17 | CCOC(=O)N1CCN(C(=O)c2ccc(N3CCC(N(C)Cc4ccn[nH]4)CC3)cc2)CC1 |  | 0.821
18 | CN(CC1CCN(CCc2cccc(F)c2)CC1)C(=O)c1cc(C2CC2)n[nH]1 | 0.91 | 
19 | CC(C)c1noc(-c2ccc(N3CCSCC3)nc2)n1 | 1.25 | 
20 | CCN(CC)C1CCN(c2nc3nonc3nc2N2CCOCC2)C1 (stereo not given) |  | 0.655
21 | CCN1CCCC1CNC1CCN(c2ccc(NC(=O)c3cccc(Cl)c3)cc2)CC1 (stereo not given) |  | 0.829
22 | COCc1nc2cc(C(F)(F)F)ccc2n1C1CCN(C(=O)Cc2csc(-c3ccccc3)n2)CC1 |  | 0.005
23 | Cc1cc(C)n(-c2cccc(CN(C)C(=O)Cn3nnnc3CN3CCOCC3)c2)n1 |  | 0.806
24 | COCC1CCCN(C(=O)CCc2nnc(Cc3ccc(-c4ccccc4)cc3)o2)C1 (stereo not given) | 1.14 | 
25 | Cc1c(CNC2CCCc3nc(N4CCC(CO)CC4)ncc32)cnn1C (stereo not given) |  | 0.814
26 | COc1ccc(-n2ncc3c2CC(C)(C)CC3NC2CCOCC2)cc1 (stereo not given) | 1 | 
27 | CCN(Cc1cnn(CC)c1)CC1CCCN(CCc2cccc(OC)c2)C1 (stereo not given) |  | 0.854
28 | Cc1cccc(CN2CCCC(O)(CNCc3nc(C)cc(C)n3)C2=O)c1 (stereo not given) |  | 0.831
29 | O=C(CSc1ccccn1)NCCN1Cc2ccccc2OC(c2ccccc2F)C1 (stereo not given) |  | 0.044
30 | CN(CC1Cc2ccccc2O1)C(=O)CCC1(Cc2cccs2)CCC(=O)N1 (stereo not given) |  | 0.871

2 entries picked at random from those above:
Row | SMILES | bacterial growth OD600 (polymyxin B 1 µg/mL) | bacterial growth OD600 (polymyxin B 0.75 µg/mL)
13 | CN(Cc1nccn1C)C(=O)c1csc2nc(-c3cccc(F)c3)cn12 | 0.042 | 
11 | O=C(CC1=CCCCC1)N1CCC(C2(c3cccnc3)NC(=O)N(CCc3cccs3)C2=O)CC1 (stereo not given) |  | 0.833
